A: 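Assay on Mycobacterium tuberculosis, filed only as a heat shock assay from Cornell; the read-out is not stated. The concentration is filed as 10 mM, unlikely as a test dose, so the dose is not known. The record gives no direction; compounds that gave an IC50 in retests scored well above the rest, so higher reads as stronger inhibition. About 69,000 compounds were tested under these conditions; 1.4% (about 930) showed 50% or more at least once.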
B: 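Primary screen of methionyl-tRNA synthetase; the read-out is not stated. Target: Methionyl-tRNA synthetase (putative), Leishmania donovani (UniProt E9BF75). The test concentration is not given. The values are filed as inhibition. Of about 68,000 compounds tested this way, about 24 (0.035%) reached 50% or more in at least one test.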
C: 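Whole-cell assay for inhibitors of Mycobacterium tuberculosis growth, labelled Cornell in the record; the read-out is not stated. The concentration is filed as 10 mM, unlikely as a test dose, so the dose is not known. Higher means stronger inhibition (inferred from two other growth screens of the library). About 53,000 compounds were tested under these conditions; 1.7% (about 900) showed 50% or more at least once.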

Sequences of proteins named here, by UniProt entry; tags and fusion partners are left off.
UniProt E9BF75, entry or part of it: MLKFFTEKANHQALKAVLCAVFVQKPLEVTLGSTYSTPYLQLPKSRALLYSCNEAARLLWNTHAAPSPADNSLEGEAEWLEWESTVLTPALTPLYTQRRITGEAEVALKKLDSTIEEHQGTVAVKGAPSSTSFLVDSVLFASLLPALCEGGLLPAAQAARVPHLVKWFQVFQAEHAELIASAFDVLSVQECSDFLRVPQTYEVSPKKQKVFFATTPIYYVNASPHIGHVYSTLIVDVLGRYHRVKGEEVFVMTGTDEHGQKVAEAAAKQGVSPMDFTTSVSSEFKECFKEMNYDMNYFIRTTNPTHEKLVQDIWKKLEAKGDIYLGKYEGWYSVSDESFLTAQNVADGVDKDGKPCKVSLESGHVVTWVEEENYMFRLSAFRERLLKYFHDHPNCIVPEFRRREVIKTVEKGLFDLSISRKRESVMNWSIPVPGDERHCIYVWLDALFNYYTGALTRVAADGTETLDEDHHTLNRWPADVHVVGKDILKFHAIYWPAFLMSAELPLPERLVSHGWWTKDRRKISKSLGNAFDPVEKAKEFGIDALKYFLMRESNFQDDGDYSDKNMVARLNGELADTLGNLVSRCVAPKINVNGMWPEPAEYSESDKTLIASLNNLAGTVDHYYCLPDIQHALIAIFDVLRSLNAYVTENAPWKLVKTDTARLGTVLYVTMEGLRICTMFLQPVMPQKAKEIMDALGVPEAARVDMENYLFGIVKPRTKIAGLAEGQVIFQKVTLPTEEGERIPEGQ

All values are in %. The controls that fix the scale are not given in the record; negative values are as filed. The compounds are a random part of those screened. A dash means the value is not listed here; it may have been measured.

| Compound | A | B | C |
|---|---|---|---|
| `CC[C@@]1(O)CCN(C(=O)c2ccc(OC(F)F)cc2)C[C@H]1O` | 2.831 | 8.511 | -35.9 |
| `CNC(=O)C1(c2cnccn2)CCCN1C(=O)c1cccc(F)c1` (stereo not drawn) | -22.04 | 4.167 | -17.46 |
| `CN1CCN(C(=O)c2n[nH]c3c2CN(C2CCOCC2)CC3)CC1` | - | 14.57 | - |
| `O=c1cc(CN2CC[C@@]3(O)CCCC[C@H]3C2)c2cccc3c2n1CCC3` | - | 12.69 | - |
| `Cn1nc(CNC(=O)NCc2ccc(Cl)cc2)c2c1CCOC2` | 16.18 | 15.69 | 24.18 |
| `COCC(=O)N(Cc1cccc(C)c1)Cc1ccccc1OC` | -25.6 | 11.87 | 33.07 |
| `Cc1c(C2CCOC(C)(C)C2)nc(N)c(C#N)c1-c1ccc(O)cc1` (stereo not drawn) | -18.3 | 12.89 | -24.98 |
| `Cc1ccc(-c2cc(C)nc(C3CCCN3S(C)(=O)=O)n2)cc1` (stereo not drawn) | 10.01 | 6.299 | 11.59 |
| `Cc1ccc2nc(C(=O)N3CCNC(=O)C3c3cccc(F)c3)cn2c1` (stereo not drawn) | 17.93 | 11.85 | -19.6 |
| `Cc1ccc(Cl)c(C(C(=O)O)N(C)Cc2cnn(C)c2)c1` (stereo not drawn) | 8.237 | 14.91 | -37.22 |
| `Cc1cc(C(=O)NCCN2CCCCCC2)nn1C(C)(C)C` | -7.394 | 24.15 | 1.369 |
| `Cc1noc(C)c1CC(=O)N1CCN(Cc2cscn2)CC1` | -1.18 | 16.39 | - |
| `CNC(=O)[C@@H](c1ccccc1OC)N1CCC[C@H]1C(=O)NC(C)(C)C` | - | 9.446 | - |
| `CC(C)[C@@H]1CN(C(=O)NCc2ccco2)C[C@H]1NS(=O)(=O)N(C)C` | 14.62 | 5.282 | -17.76 |
| `Cc1nncn1CCNC(=O)C(C)(C)c1cccc(C(F)(F)F)c1` | -9.235 | 11.33 | - |
| `NC(=O)Cn1cc(NC(=O)N2CCCC(O)C2)cn1` (stereo not drawn) | 18.62 | 17.89 | - |
| `O=S(=O)(c1cccnc1)N1CCN(CC(O)c2ccccc2)CC1` (stereo not drawn) | -17.28 | 9.722 | 25.53 |
| `CN1CCN(C[C@H]2CN3CC[C@H]2C[C@@H]3CNC(=O)c2ccco2)CC1` | - | 5.763 | - |
| `Cn1c(C2CCCN2C(=O)c2cn(CCN)nn2)nc2ccccc21` (stereo not drawn) | -13.12 | 16.84 | 20.26 |
| `O=C(O)C(F)(F)F.O=C(O)C(F)(F)F.[H][C@@]12CCCO[C@]1([H])[C@H](N1CCN(C)CC1)CN2C(=O)c1occc1C` | -3.832 | - | -2.27 |
| `CC(NC(=O)NCCCn1cncn1)c1ccc(C(F)(F)F)cc1` (stereo not drawn) | 27.63 | 18.73 | - |
| `O=C(NC[C@H]1C[C@@H]2CN(C(=O)c3ccco3)C[C@@H]2O1)c1ccsc1` | - | 18.18 | - |
| `O=C(NC[C@@]1(COc2cnccn2)C[C@@H](O)[C@@H](O)C1)C1CCCC1` | - | 5.263 | - |
| `CCN(CC)C(=O)Cn1c(=O)n(Cc2ccco2)c2ncccc21` | -10.77 | 6.824 | - |
| `CCc1nnc2n1CCN(C(=O)c1cc3ccc(F)cc3nc1C)C2` | -26.69 | 14.17 | -48.76 |
| `Cc1ccc(-c2ccnc(N3CCC4(CCO4)CC3)n2)c(C)n1` | -9.072 | 15.81 | 25.71 |
| `Cl.O=C(Cc1ccc(F)cc1)N1CCN(CC(O)C2CC2)CC1` (stereo not drawn) | 6.166 | - | -0.5028 |
| `CC(=O)NCCC1CCCCN1S(=O)(=O)c1ccc2ccccc2c1` (stereo not drawn) | -9.008 | 14.11 | 30.25 |
| `NCc1cn(-c2ccccc2C(=O)NCc2ccccc2)cn1` | -6.509 | 12.94 | - |
| `Cc1nc(C2CCCN2C(=O)COCc2ccccc2)no1` (stereo not drawn) | -3.673 | 17.09 | -29.83 |
| `O=C1[C@H]2CN(Cc3ccco3)C[C@H]2CN1c1ccsc1` | - | 8.667 | - |
| `COc1ncc(CN2CCC3(CCCN(CC4CCC4)C3)C2)cn1` (stereo not drawn) | 8.937 | 22.52 | 26.82 |
| `Cc1nc(C)n(C2CCCN(C(=O)c3ccc4[nH]nnc4c3)C2)n1` (stereo not drawn) | -6.018 | 21.27 | - |
| `Cc1ccc(CSc2nc(N)cc(NCCC(=O)N3CCCC3)n2)cc1` | 5.439 | 23.12 | 88.28 |
| `O=C(O)C(F)(F)F.[H][C@@]12COC[C@]1([H])[C@@H](OCC1CCOCC1)CN2Cc1ccc(C)o1` | 21.24 | - | -26.82 |
| `COCc1noc(CCNc2nc(CC3CC3)nc3c2CCNCC3)n1` | -29.97 | 6.873 | 43.05 |
| `[H][C@@]12COC[C@]1([H])[C@H](NC(=O)c1cccn1C)CN2S(C)(=O)=O` | -17.27 | - | -10.33 |
| `Cc1cccc(CC(=O)Nc2cnn(C3CCOC3)c2)c1` (stereo not drawn) | 5.402 | 9.859 | -1.279 |
| `O=C1CCCN1C1CCN(S(=O)(=O)CCOc2ccc(F)cc2)CC1` | -0.04443 | 1.064 | -3.906 |
| `O=C(O)C(F)(F)F.O=C(O)C(F)(F)F.[H][C@@]12CCCO[C@]1([H])[C@H](N(C)Cc1ccco1)CN2Cc1ccco1` | 13.61 | - | - |
| `CCCn1ccc2ccc(NC(=O)N(C)CCOC)cc21` | 10.15 | 21.13 | 2.183 |
| `Cc1ccsc1C(=O)N1CCN(Cc2cscn2)CC1` | 14.49 | 24.86 | - |
| `O=C(O)C(F)(F)F.O=C(O)C(F)(F)F.[H][C@]12C[C@@H](Cn3cncn3)N(C)[C@@]1([H])CCN(Cc1ccsc1)C2` | -1.587 | - | -2.972 |
| `O=C(c1cnn(-c2ccccc2F)c1)N1CCN(CCO)CC1` | -10.2 | 10.73 | 3.152 |
| `Cc1nc(N(Cc2ccncc2)CC2CCCO2)c2ccsc2n1` (stereo not drawn) | -10.74 | 10.65 | 30.31 |
| `COCCC(=O)N1CCN(CC(C)C)c2nc(C)ccc2C1` | - | -8.772 | - |
| `COCC1CN(C(=O)c2cccc(C)n2)Cc2nccn2C1` (stereo not drawn) | - | 15.93 | - |
| `Cc1cnn(CC2CCCCN2C(=O)c2cccc3c2OCO3)c1` (stereo not drawn) | 9.082 | 8.591 | -5.728 |
| `CCOc1cc(CNc2cc(-c3nc(C)no3)ccn2)ccc1OC` | 3.98 | 6.183 | -5.252 |
| `[H][C@@]12C[C@H](C(=O)Nc3ccccc3)[C@@]([H])(CN(C(=O)NC)C1)O2` | 9.41 | - | -21.41 |
| `COc1cc2cc3c(nc2cc1OC)OCCN(Cc1cccs1)C3` | -4.241 | 4.43 | -4.63 |
| `COc1ccccc1NC(=O)c1cnc(C2CCN(C(C)=O)C2)nc1C` (stereo not drawn) | -6.918 | 13.37 | 26.28 |
| `COc1ncc(C2(O)CCN(Cc3cccc(F)c3F)CC2)c(OC)n1.Cl` | -9.373 | - | - |
| `CC(C)c1nnc(NC(=O)N(C)Cc2ccc(C(N)=O)cc2)s1` | 7.738 | 13.47 | -30.77 |
| `Cn1cccc1C(=O)NC[C@H]1C[C@@H]2CN(C(=O)c3ccno3)C[C@H]2O1` | - | 10.14 | - |
| `Cc1cc(Cc2ccccc2F)cc(C2CCCNC2)n1` (stereo not drawn) | 0.3483 | 10.48 | 6.689 |

Source: ChEMBL document CHEMBL3988442, “University of Dundee, Small-Polar-MMV Screening Library” (2021).